Measured data: PubChem BioAssay AID743121 (NCATS, 2013)
The deposit covers about 26,000 reagents; this is a random part of them. 167 of them (0.63%) count as active. 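Calls are per gene from RSA p-values that are not deposited; an individual active-marked siRNA can sensitise only weakly.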 Reagents against one gene are numbered here. Further read-outs or replicates are left out here.

- Assay: 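Partners whose loss is lethal together with topoisomerase I blockade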 (primary screen)
- Cells: MDA-MB-231 cells, a human breast cancer line
- Reagent: single siRNA against human genes, 20 nM siRNA (0.8 pmol per well)
- Duration: 120 h (drug added 48 h after transfection, read 72 h later)
- Treatment: camptothecin 20 nM (about EC30) for 72 h; vehicle 0.1% DMSO in parallel plates
- Measured: 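CellTiter-Glo ATP signal, scaled to control siRNA as percent viability; sensitisation given as log2 of untreated divided by camptothecin-treated viability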
- Scale: log2 vehicle/camptothecin viability: higher = stronger sensitisation to camptothecin; viability with camptothecin: higher = more viable cells
- Hit rule: 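Each gene scored by redundant siRNA activity (RSA) over its individual siRNA ratios; a gene is called active at p < 0.001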

no.	gene symbol	reagent no.	log2 vehicle/camptothecin viability	viability with camptothecin (% of control)	activity call
1	CHRNB2 (cholinergic receptor nicotinic beta 2 subunit)	1	-0.118	44.5	inactive
2	CHRNB2 (cholinergic receptor nicotinic beta 2 subunit)	2	0.108	73.1	inactive
3	CHRNB2 (cholinergic receptor nicotinic beta 2 subunit)	3	-0.417	94	inactive
4	CD27 (CD27 molecule)	1	-0.16	89.7	inactive
5	CD27 (CD27 molecule)	2	0.574	38.8	inactive
6	CD27 (CD27 molecule)	3	0.415	48.9	inactive
7	CD27 (CD27 molecule)	4	-0.26	95.6	inactive
8	KPNB1 (karyopherin subunit beta 1)	1	-0.434	24.3	inactive
9	KPNB1 (karyopherin subunit beta 1)	2	-0.0947	37.1	inactive
10	KPNB1 (karyopherin subunit beta 1)	3	0.428	7.21	inactive
11	KPNB1 (karyopherin subunit beta 1)	4	-0.323	43.9	inactive
12	PITRM1 (pitrilysin metallopeptidase 1)	1	0.11	96.7	inactive
13	PITRM1 (pitrilysin metallopeptidase 1)	2	-0.145	88.5	inactive
14	PITRM1 (pitrilysin metallopeptidase 1)	3	0.671	56.6	inactive
15	PITRM1 (pitrilysin metallopeptidase 1)	4	0.0194	47.4	inactive
16	AHR (aryl hydrocarbon receptor)	1	-0.608	86.2	inactive
17	AHR (aryl hydrocarbon receptor)	2	-0.0352	120	inactive
18	AHR (aryl hydrocarbon receptor)	3	-0.46	72.5	inactive
19	AHR (aryl hydrocarbon receptor)	4	0.0952	113	inactive
20	NAMPT (nicotinamide phosphoribosyltransferase)	1	0.862	42.8	inactive
21	NAMPT (nicotinamide phosphoribosyltransferase)	2	-0.126	79.4	inactive
22	NAMPT (nicotinamide phosphoribosyltransferase)	3	-0.121	44.7	inactive
23	ALDOB (aldolase, fructose-bisphosphate B)	1	-0.298	75.6	inactive
24	ALDOB (aldolase, fructose-bisphosphate B)	2	0.317	72.2	inactive
25	ALDOB (aldolase, fructose-bisphosphate B)	3	-0.29	65.7	inactive
26	ALDOB (aldolase, fructose-bisphosphate B)	4	-0.274	100	inactive

Records listed so far whose target name starts with N or n:
gene symbol	reagent no.	log2 vehicle/camptothecin viability	viability with camptothecin (% of control)	activity call
NAMPT (nicotinamide phosphoribosyltransferase)	1	0.862	42.8	inactive
NAMPT (nicotinamide phosphoribosyltransferase)	2	-0.126	79.4	inactive
NAMPT (nicotinamide phosphoribosyltransferase)	3	-0.121	44.7	inactive

The list goes on:
no.	gene symbol	reagent no.	log2 vehicle/camptothecin viability	viability with camptothecin (% of control)	activity call
27	ODC1 (ornithine decarboxylase 1)	1	-0.412	42.8	inactive
28	ODC1 (ornithine decarboxylase 1)	2	-0.371	51.5	inactive
29	ODC1 (ornithine decarboxylase 1)	3	-0.202	39	inactive
30	ODC1 (ornithine decarboxylase 1)	4	-0.0905	100	inactive
31	FXN (frataxin)	1	-0.117	132	inactive
32	FXN (frataxin)	2	0.175	74.9	inactive
33	FXN (frataxin)	3	0.835	22.6	inactive
34	RNF2 (ring finger protein 2)	1	0.0696	85	inactive
35	RNF2 (ring finger protein 2)	2	-0.34	63.5	inactive
36	RNF2 (ring finger protein 2)	3	-0.348	105	inactive
37	RNF2 (ring finger protein 2)	4	0.195	81.9	inactive
38	BSG (basigin (Ok blood group))	1	-0.0934	66.7	inactive
39	BSG (basigin (Ok blood group))	2	-0.0849	69.8	inactive
40	BSG (basigin (Ok blood group))	3	0.118	84.2	inactive
41	TRIM67 (tripartite motif containing 67)	1	-0.226	36.4	inactive
42	TRIM67 (tripartite motif containing 67)	2	0.401	63.8	inactive
43	TRIM67 (tripartite motif containing 67)	3	0.00593	56.6	inactive
44	TRIM67 (tripartite motif containing 67)	4	-0.175	122	inactive
45	ZDHHC17 (zDHHC palmitoyltransferase 17)	1	0.209	83.3	inactive
46	ZDHHC17 (zDHHC palmitoyltransferase 17)	2	0.0416	94.7	inactive
47	ZDHHC17 (zDHHC palmitoyltransferase 17)	3	0.39	76.8	inactive
48	PLA2G2F (phospholipase A2 group IIF)	1	-0.387	77.1	inactive
49	PLA2G2F (phospholipase A2 group IIF)	2	-0.148	52.8	inactive
50	PLA2G2F (phospholipase A2 group IIF)	3	-0.313	120	inactive
51	PLA2G2F (phospholipase A2 group IIF)	4	0.905	29.4	inactive
52	BNIP3L (BCL2 interacting protein 3 like)	1	-0.461	99.7	inactive
53	BNIP3L (BCL2 interacting protein 3 like)	2	-0.0241	83.9	inactive
54	BNIP3L (BCL2 interacting protein 3 like)	3	-0.0952	97.9	inactive
55	BNIP3L (BCL2 interacting protein 3 like)	4	-0.285	40	inactive
56	GSK3A (glycogen synthase kinase 3 alpha)	1	-0.265	115	inactive
57	GSK3A (glycogen synthase kinase 3 alpha)	2	-0.167	79	inactive
58	GSK3A (glycogen synthase kinase 3 alpha)	3	-0.24	62.1	inactive
59	GSK3A (glycogen synthase kinase 3 alpha)	4	-0.251	113	inactive
60	CRIPTO (cripto, EGF-CFC family member)	1	-0.385	59	inactive
61	CRIPTO (cripto, EGF-CFC family member)	2	-0.118	108	inactive
62	CRIPTO (cripto, EGF-CFC family member)	3	-0.077	106	inactive
63	GGA1	1	-0.134	46.8	inactive
64	GGA1	2	-0.178	60.7	inactive
65	GGA1	3	0.0925	96.7	inactive
66	GGA1	4	-0.146	49.9	inactive
67	GGA1	5	-0.136	83.1	inactive
68	GGA1	6	-0.44	64.7	inactive
69	GGA1	7	-0.533	94.5	inactive
70	GGA1	8	0.245	32.7	inactive
